Reference: US12084399B2, “Crystalline tranilast salts and their pharmaceutical use” (NUFORMIX TECHNOLOGIES LIMITED, priority 2018, dated 2024)
Some of these results come from one statement about several compounds together. For at least one compound, name, drawing or mass did not settle the structure.

Key:
[1] = Dissolution study in simulated intestinal fluid (FaSSIF V2); assay type: physicochemical; settings: 50 ml FaSSIF V2, pH 6.5, 37° C., equivalent to 200 mg tranilast
Description: For BCS class II drugs, such as tranilast, the rate of dissolution of the drug form used in the gastrointestinal media can be the controlling factor in the overall absorption and thus the bioavailability of an oral drug. This becomes even more influential as the dose of a drug increases. For conditions such as fibrosis or cancer where a higher dose of tranilast may be needed for successful treatment, finding a form of tranilast that has a high dissolution rate is important. […] Pat. […] The dissolution study was carried out using the Pion inForm® instrument. Detection and quantification of tranilast was performed by in-situ UV-spectroscopy using a fibre-optic probe, allowing instantaneous data collection from the point of sample introduction.

[2] = Dissolution study in 5% aqueous dextrose solution; assay type: physicochemical; settings: 50 ml 5% aqueous dextrose solution, equivalent to 200 mg tranilast
Description: As this invention also relates to a method of preparing a liquid pharmaceutical formulation of tranilast for delivery, for example, as an injectable formulation, a liquid oral formulation or a nebulised inhaled formulation a study was also carried out to explore the dissolution rates of the crystalline tranilast salts of this invention in a suitable media. As liquid pharmaceutical formulations are usually made up in-situ at the bedside for immediate delivery it is important that these new solid forms of tranilast dissolve almost instantaneously for them to be suitable for use in a liquid pharmaceutical formulation. Whilst liquid oral formulations could be achieved by simply dissolving a drug in water prior to administration (the high aqueous solubility of the new crystalline tranilast salts would make this possible), a liquid formulation for inhaled or intravenous delivery requires the dissolution media to be isotonic. This is often achieved by using saline (0.9% sodium chloride in water) as the liquid formulation media. […] An alternative isotonic media suitable for preparing liquid pharmaceutical formulations for inhaled or intravenous administration is 5% aqueous dextrose solution. […] The results of this study can be seen in FIG. 41.

## COc1ccc(/C=C/C(=O)Nc2ccccc2C(=O)O)cc1OC.NCCCC[C@H](N)C(=O)O [Tranilast Salt L-Lysine, Crystalline 1:1 Tranilast L-Lysine Salt]
[1]
  time to complete dissolution: ≤ 30 s
[2]
  time to complete dissolution: less than 1 minute
